Assay results taken from the supplement of paper PMC3334620.
Whole data set: some 33,000 sequences, median “E-score (-0.5 to 0.5)” near -8e-05, cut for the highest 2% near 0.23. The list shows a part of the results.

What follows are sequences tested against T1, Nrg2 (UniProt P38082) (assay: PBM E-score (8-mer binding enrichment) (E-score (-0.5 to 0.5)); higher = stronger / more preferred TF binding). Settings: protein concentration: 100 nM; construct: GST-full length.
T1 sequence: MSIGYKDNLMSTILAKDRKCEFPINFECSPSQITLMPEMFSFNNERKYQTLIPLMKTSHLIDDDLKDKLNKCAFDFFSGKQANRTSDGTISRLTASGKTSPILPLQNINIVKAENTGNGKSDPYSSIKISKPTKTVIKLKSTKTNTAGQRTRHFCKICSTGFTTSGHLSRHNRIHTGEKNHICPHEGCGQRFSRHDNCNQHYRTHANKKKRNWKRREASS
How it was run: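 The E-score, a modified Wilcoxon-Mann-Whitney statistic, was computed by the Universal PBM Analysis Suite for every ungapped eight-base word pooled with its reverse complement. Scans behind it were normalised with masliner after bound GST-tagged yeast transcription factors were detected with fluorescent anti-GST. The proteins, at about 100-200 nM, had been applied to universal all-10-mer Agilent arrays made double-stranded by primer extension.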

Sequence	PBM E-score
AGTAACTC	0.0569
ATGTGCTA	-0.0357
AACTTGAG	-0.232
CGACCATC	-0.00804
CATCCACA	0.0702
GGACAGGA	-0.0722
ACGCTAAG	-0.295
ATCACGAT	-0.148
GTAGTACA	0.0751
GTGTGAAA	0.119
ATCGAAGG	0.00472
CCCACCGA	0.0724
GGCAGATA	-0.15
GCCGTCGC	-0.039
CTATCTGA	-0.0469
CAGGTCAC	-0.271
CGATTTCC	0.0794
TAATCTGA	0.0955
ACGCTTTA	-0.188
GGTTAAGA	0.0775
ACGCAGAG	0.0966
CAGGCGAC	-0.114
AATGCTAA	0.0106
GGCGATTA	-0.0236
AGCAAAGG	0.0268

Sequence	PBM E-score
AGTGTGGG	-0.0976
CTTTTATC	0.135
GAAACTCC	-0.182
CTTGTCCC	0.0971
ATTTCGAA	0.117
GGTGAAAC	-0.0289
AGTAAGAC	-0.014
ACATGACC	-0.0768
GTACGAGA	0.0861
TCAGATCA	0.0746
GCTTATAA	0.052
ACCGCAGA	-0.0429
TCTCGAGA	0.163
AGATCAAT	0.0887
AGGTCTAT	-0.00063
CGACGCTA	-0.0547
CTATATGC	0.0832
CCGATAAG	-0.0963
GATCTAGC	0.0211
AGCCGAGG	0.215
AATTTGAA	0.141
CTAGTATC	0.185
ACATGTTA	0.0181
TAACACCA	0.022
CATAAGCA	-0.103

Looked up above:
GCTTATAA | PBM E-score: 0.052
CGACGCTA | PBM E-score: -0.0547
TCAGATCA | PBM E-score: 0.0746
CCGATAAG | PBM E-score: -0.0963
CTAGTATC | PBM E-score: 0.185

(next part)

Sequence	PBM E-score
AACATACT	0.0279
AGGTGTGC	-0.0759
ACATTATG	0.00928
AGCCTTAG	-0.206
GATTGAAA	0.0241
CCTCAGAG	-0.21
CCCGTGCA	-0.00345
TACGCGCA	0.18
AATACTCA	0.163
ACGACAGT	-0.145
GTCCCAGA	-0.19
AGTCTGGC	-0.36
CGAACATC	0.086
AGTGGAGA	0.0905
CCCAAAAG	-0.043
AAGGCTGG	-0.179
CTCACGAC	-0.175
ATAGGGGG	-0.364
ATAGTGGC	0.0613
ATCATACG	0.141
AAGGAACG	0.0193
ATACTGAA	0.00599
AACACCTG	-0.0343
AGCCGCCG	0.0509
GTTCTGTA	0.0845

Sequence	PBM E-score
CATACTGG	0.0286
ATACGAGC	0.0677
AGAACATA	0.164
ACTTCAGG	-0.0321
TTCCCAAA	0.0812
CAACGCCA	-0.0368
CATGCTGA	0.104
GCCCTATA	0.0607
CTTGACAC	-0.0866
ATCCGGCC	-0.00708
ACGTGCGC	-0.0374
TAAAAAGA	-0.0119
ACGACGAC	-0.128
CAGTGCGC	-0.224
ATGTGTAA	-0.102
GCTCGTCC	0.0551
GAACATCA	0.009
AGGCTATG	-0.264
CCAGGCGC	-0.0854
GAGTTAAC	-0.0596
CGTGATTA	0.102
AGTCAGAT	-0.0838
AACCAGCT	0.133
CTGGAACC	-0.0953
ACCCCAGG	-0.0209

Sequence	PBM E-score
CTTAACGC	-0.147
CGTTGACC	0.0512
CAGCTGGC	0.0512
CCAATGGA	0.0152
GAAGCATC	-0.0701
ACCAGGAC	-0.0139
ACAAGAAA	0.0532
AGAATGAG	-0.00914
AGGCGAGA	0.0131
CGTAGGAC	-0.22
CCTTTCTA	0.0384
GACACAAA	0.136
CTCGTGCA	-0.0635
CGGAATCC	-0.0755
AATCCATA	0.155
CGCGATAC	0.114
ACAACGGG	0.243
GCTTACTA	-0.0461
CCACGTCG	0.0281
AGAATCAC	-0.00078
ACTCACCG	-0.0214
CCAGGCTA	-0.171
CGACTAGA	-0.135
GTAGGACA	0.0388
CCGACGGA	0.0815

As a working copy, part of the list above:
Sequence	PBM E-score
CCAATGGA	0.0152
GAAGCATC	-0.0701
ACCAGGAC	-0.0139
ACAAGAAA	0.0532
AGAATGAG	-0.00914

(next part)

Sequence	PBM E-score
CATTTGAC	-0.105
ACGGCAAT	0.226
CTTGAGCA	-0.192
CAGGCTCG	-0.0589
CTAACTAC	-0.0974
GTCCCAAA	-0.0993
TCACGTGA	0.0123
GCGACTCA	0.0102
GAAAATTA	0.105
GGAACAAA	0.263
CTAGGACC	-0.243
AGTAGAGA	-0.0288
CCCGACAA	0.261
CTCGGTAC	-0.25
TACCGGAA	0.0379
CCCGCGTA	0.0466
ACAATGGG	0.0335
GCGCTCAC	0.146
AGTATAAA	0.194
CGTCTGTA	-0.0917
ATGGGCAC	0.127
AGGATGAA	-0.0613
GAGCGGGC	-0.182
AAAGCTCA	-0.0299
AGACAATC	0.0613

Sequence	PBM E-score
AGTCCCGG	-0.212
CTTAACAA	0.107
GAAACCCA	0.158
ATCTGTTG	-0.0394
TGAGACCA	0.00854
CACGTTAA	0.0481
GCGCTATA	0.076
AGCTGCGG	-0.0948
ACAGATCG	0.0628
AAGCCTAG	-0.148
CTGCACGC	-0.185
AATCCGCG	-0.0302
ATGGCGCA	0.183
CGATCGAA	0.0388
ACTATTTA	0.0789
AGCCGGGG	-0.154
CACATAGC	-0.0258
GAGTAGTA	0.0848
CCAGTACC	-0.0384
CCTACCCG	-0.0674
AGCTATGC	-0.122
CAATGGCA	0.165
CATCTGAC	-0.156
CTACTTAC	-0.125
AACTATCC	-0.134

Sequence	PBM E-score
AACAATTA	0.193
GGTGGGAC	-0.202
GCCGAACC	-0.0531
AATTCTGT	-0.0464
ATTACACC	0.0197
CTACGCAC	-0.027
CGTTACAC	-0.104
GCGTTTCA	-0.0291
ACTGAAAG	0.0423
GGTGTCCA	0.0507
CCAGCGTA	-0.0444
CCCTTGGA	0.18
AGATGCAC	-0.0859
CAAAGTCA	0.0623
CTTGCCGC	-0.182
CTATTCGA	-0.0445
GAAGCTTC	-0.12
GGTTAGCA	-0.0669
CCGAGGTA	0.00195
GGCATCCA	-0.203
GAATTCAA	0.192
AAAAATGC	0.0436
GAACGGAC	-0.231
AAGCATTG	0.00568
GTGGAGCA	-0.0996

Sequence	PBM E-score
AAGGGTAC	0.165
AACAAGTG	-0.087
AGGAGATC	0.0944
AGCCTTAA	0.0283
AATCTTCA	0.153
AGGAAGCC	-0.0629
CGACCCAC	-0.0231
CAGCACTA	0.0125
GCTCCGAA	0.107
AGTATTCC	0.13
GTGTTTGA	0.162
ACACTGAT	-0.00244
TGTCCACA	0.0153
TATTTGCA	0.172
GGAGCCGA	-0.113
CCCAGTTC	0.124
AAGTATTG	-0.00193
GATCCAGC	-0.0881
AAAGAAAC	0.0693
